In article PMC7196314:
No constants are given. Whether binding was seen depends on the method and setting. In cells and extracts the contact can be indirect. Some results given as binding are weak or reduced against the parent protein; the word gives no strength.

Protein sequences, listed by entry. Tags and fused reporters are not part of them.
UniProt P35222: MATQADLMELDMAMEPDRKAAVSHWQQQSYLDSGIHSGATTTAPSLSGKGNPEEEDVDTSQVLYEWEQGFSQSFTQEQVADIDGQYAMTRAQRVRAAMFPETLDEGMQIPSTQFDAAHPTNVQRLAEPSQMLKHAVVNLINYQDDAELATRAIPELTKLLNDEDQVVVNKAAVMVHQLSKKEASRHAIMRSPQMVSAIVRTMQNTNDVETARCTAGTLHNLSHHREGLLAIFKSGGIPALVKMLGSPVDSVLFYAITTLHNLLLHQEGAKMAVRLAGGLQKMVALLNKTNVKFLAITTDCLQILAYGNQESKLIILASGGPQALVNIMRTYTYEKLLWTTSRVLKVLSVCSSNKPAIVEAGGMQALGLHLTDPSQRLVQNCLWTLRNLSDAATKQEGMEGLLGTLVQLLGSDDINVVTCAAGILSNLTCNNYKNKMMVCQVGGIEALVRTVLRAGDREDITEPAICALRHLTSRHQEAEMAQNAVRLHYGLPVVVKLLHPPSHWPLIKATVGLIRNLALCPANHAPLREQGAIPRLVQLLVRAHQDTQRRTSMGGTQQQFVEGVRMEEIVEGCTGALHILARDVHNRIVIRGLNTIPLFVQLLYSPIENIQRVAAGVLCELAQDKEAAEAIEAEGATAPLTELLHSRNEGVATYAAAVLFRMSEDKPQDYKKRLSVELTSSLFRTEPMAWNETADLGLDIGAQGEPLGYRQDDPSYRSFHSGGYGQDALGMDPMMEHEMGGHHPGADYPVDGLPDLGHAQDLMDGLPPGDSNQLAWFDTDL

Molecular target: T1, Forkhead box protein C1 (human (endogenous in RASFs)) (UniProt Q12948)
T1 sequence: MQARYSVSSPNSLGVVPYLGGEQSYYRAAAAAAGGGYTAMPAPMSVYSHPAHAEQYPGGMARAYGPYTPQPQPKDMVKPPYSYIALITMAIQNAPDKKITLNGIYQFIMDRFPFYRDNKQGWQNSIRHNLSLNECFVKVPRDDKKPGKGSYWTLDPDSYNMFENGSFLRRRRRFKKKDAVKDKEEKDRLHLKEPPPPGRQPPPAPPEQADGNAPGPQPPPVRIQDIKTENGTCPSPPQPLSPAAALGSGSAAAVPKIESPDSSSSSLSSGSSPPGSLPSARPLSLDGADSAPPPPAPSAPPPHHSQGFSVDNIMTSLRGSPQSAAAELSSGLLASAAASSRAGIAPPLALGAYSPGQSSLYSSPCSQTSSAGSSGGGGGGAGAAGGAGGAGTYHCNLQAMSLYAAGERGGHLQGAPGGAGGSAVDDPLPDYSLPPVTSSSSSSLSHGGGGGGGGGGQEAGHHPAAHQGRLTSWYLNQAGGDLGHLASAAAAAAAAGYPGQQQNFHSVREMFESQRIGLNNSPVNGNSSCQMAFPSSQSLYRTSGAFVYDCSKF
Experiment: co-IP; RASFs lysed in RIPA at 4 °C; supernatant incubated with FoxC1 antibody (ab5079), β-catenin antibody (L87A12) or normal IgG with protein A/G magnetic beads at 4 °C overnight; immunoblot

β-catenin (from UniProt P35222 1-781)
binding: binds
